The assay has as its system nude mice, A549 intrarenal xenograft, tumor weight change. In words: NCI In Vivo Anticancer Drug Screen. Data for tumor model A549 Human Adenocarcinoma of Lung with characteristics of Type II Alveolar Epithelial cells (intrarenal inoculation) in NU/NU BALB/C (nude) mice. The following applies: endpoint: mean tumor weight change, schedule: Q04DX003 (ip), vehicle: Klucel (hydroxypropylcellulose) (HPC), higher = larger tumour. Here is the method: The antitumor activity of compounds was measured in mice bearing transplantable tumors. Survival or tumor size were measured and the results are expressed as the measurement made in the treated group (T) divided by the measurement made in the vehicle treated control group (C). The tumor model used in this assay is A549 Human Adenocarcinoma of Lung with characteristics of Type II Alveolar Epithelial cells (intrarenal inoculation) in NU/NU BALB/C (nude) mice

Experimental findings from PubChem BioAssay AID278 (DTP/NCI, 2004) are described below.

Where “and” joins values, the source holds several entries; their conditions need not be identical. Equal entries are not always repeated. Results filed as inconclusive are left out.

As to `CCOC(=O)NC1CCc2cc(OC)c(OC)c(OC)c2-c2ccc(OC)c(=O)cc21` (stereo not drawn), the T/C is, setting by setting: (dose: 1.0 mg/kg/injection) 74 % of control; (dose: 2.0 mg/kg/injection) 62 % of control; (dose: 4.0 mg/kg/injection) 14 % of control; (dose: 8.0 mg/kg/injection) 31 % of control.

For `COc1c(O)cc2c(c1OC)-c1ccc(SC)c(=O)cc1C(NC(C)=O)CC2` (stereo not drawn), the T/C reads like this: (dose: 4.32 mg/kg/injection) 2 % of control; (dose: 5.0 mg/kg/injection) 12 % of control and 25 % of control; (dose: 7.2 mg/kg/injection) 63 % of control; (dose: 12.0 mg/kg/injection) 20 % of control and 43 % of control.
